{"source": "PubChem BioAssay AID504804 (Drosophila RNAi Screening Center, 2011)", "aim": "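dsRNAs that improve Kc cell survival under doxorubicin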 (primary screen)", "cell system": "Drosophila Kc cells", "reagents": "long dsRNA against Drosophila genes, 0.5 µg dsRNA per well", "timing": "96 h (48 h knock-down, then 48 h drug)", "treatment": "doxorubicin 5 µg/ml for 48 h, added 48 h after dsRNA", "measurement": "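Luminescent ATP counts per replicate, not normalised, reflecting viable cells after 48 h dsRNA knock-down followed by 48 h of 5 µg/ml doxorubicin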", "reading the numbers": "raw ATP luminescence: higher = more viable cells, protection from doxorubicin", "active means": "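z-score of 2 or more over plate mean in both duplicates, retained only when retests and separate dsRNAs confirm the protection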", "note": "The deposit covers about 19,000 reagents; below is an unselected part of those that have a named target and a result. Of all reagents, 47 (0.25%) got an active call. 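Signals are raw, not normalised; exact z-scores behind calls not deposited; actives needed confirmation, so some wells reaching 2 SD are inactive.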"}
{"predicted target": "CG4830", "DRSC id": "DRSC15657", "raw ATP luminescence, replicate 1": 54260, "raw ATP luminescence, replicate 2": 53753, "call": "inactive"}
{"predicted target": "CG13359", "DRSC id": "DRSC18539", "raw ATP luminescence, replicate 1": 42500, "raw ATP luminescence, replicate 2": 49940, "call": "inactive"}
{"predicted target": "CG7724", "DRSC id": "DRSC10905", "raw ATP luminescence, replicate 1": 20310, "raw ATP luminescence, replicate 2": 20260, "call": "inactive"}
{"predicted target": "Mfap1", "DRSC id": "DRSC08154", "raw ATP luminescence, replicate 1": 48967, "raw ATP luminescence, replicate 2": 59763, "call": "inactive"}
{"predicted target": "CG2680", "DRSC id": "DRSC18466", "raw ATP luminescence, replicate 1": 69620, "raw ATP luminescence, replicate 2": 55600, "call": "inactive"}
{"predicted target": "CG6321", "DRSC id": "DRSC10623", "raw ATP luminescence, replicate 1": 38340, "raw ATP luminescence, replicate 2": 33870, "call": "inactive"}
{"predicted target": "bam", "DRSC id": "DRSC16907", "raw ATP luminescence, replicate 1": 76770, "raw ATP luminescence, replicate 2": 75680, "call": "inactive"}
{"predicted target": "Recs1", "DRSC id": "DRSC16545", "raw ATP luminescence, replicate 1": 1.15e5, "raw ATP luminescence, replicate 2": 76310, "call": "inactive"}
{"predicted target": "Psf3", "DRSC id": "DRSC18216", "raw ATP luminescence, replicate 1": 3.42e5, "raw ATP luminescence, replicate 2": 3.15e5, "call": "inactive"}
{"predicted target": "CG8195", "DRSC id": "DRSC07103", "raw ATP luminescence, replicate 1": 59430, "raw ATP luminescence, replicate 2": 81313, "call": "inactive"}
{"predicted target": "CG31204", "DRSC id": "DRSC15106", "raw ATP luminescence, replicate 1": 48650, "raw ATP luminescence, replicate 2": 21040, "call": "inactive"}
{"predicted target": "CG31676", "DRSC id": "DRSC02387", "raw ATP luminescence, replicate 1": 60327, "raw ATP luminescence, replicate 2": 65577, "call": "inactive"}
{"predicted target": "cathD", "DRSC id": "DRSC07588", "raw ATP luminescence, replicate 1": 32493, "raw ATP luminescence, replicate 2": 1.07e5, "call": "inactive"}
{"predicted target": "l(2)efl", "DRSC id": "DRSC04698", "raw ATP luminescence, replicate 1": 76867, "raw ATP luminescence, replicate 2": 69977, "call": "inactive"}

Reformatted: entries from further up.
predicted target	DRSC id	raw ATP luminescence, replicate 1	raw ATP luminescence, replicate 2	call
CG8195	DRSC07103	59430	81313	inactive
CG31204	DRSC15106	48650	21040	inactive
CG31676	DRSC02387	60327	65577	inactive
cathD	DRSC07588	32493	1.07e5	inactive

Additional entries:
{"predicted target": "CG14273", "DRSC id": "DRSC02377", "raw ATP luminescence, replicate 1": 39843, "raw ATP luminescence, replicate 2": 64780, "call": "inactive"}
{"predicted target": "kud", "DRSC id": "DRSC11086", "raw ATP luminescence, replicate 1": 42803, "raw ATP luminescence, replicate 2": 37070, "call": "inactive"}
{"predicted target": "CAH13", "DRSC id": "DRSC06128", "raw ATP luminescence, replicate 1": 34320, "raw ATP luminescence, replicate 2": 76157, "call": "inactive"}
{"predicted target": "CG8100", "DRSC id": "DRSC10961", "raw ATP luminescence, replicate 1": 49950, "raw ATP luminescence, replicate 2": 32263, "call": "inactive"}
{"predicted target": "Ugt301D1", "DRSC id": "DRSC02021", "raw ATP luminescence, replicate 1": 40630, "raw ATP luminescence, replicate 2": 43493, "call": "inactive"}
{"predicted target": "Tbc1d22", "DRSC id": "DRSC15867", "raw ATP luminescence, replicate 1": 44230, "raw ATP luminescence, replicate 2": 55457, "call": "inactive"}
{"predicted target": "CG10984", "DRSC id": "DRSC09817", "raw ATP luminescence, replicate 1": 35107, "raw ATP luminescence, replicate 2": 32497, "call": "inactive"}
{"predicted target": "Nup358", "DRSC id": "DRSC14410", "raw ATP luminescence, replicate 1": 58767, "raw ATP luminescence, replicate 2": 98097, "call": "inactive"}
{"predicted target": "Plzf", "DRSC id": "DRSC02994", "raw ATP luminescence, replicate 1": 96400, "raw ATP luminescence, replicate 2": 77387, "call": "inactive"}
{"predicted target": "CG11756", "DRSC id": "DRSC19424", "raw ATP luminescence, replicate 1": 2.94e5, "raw ATP luminescence, replicate 2": 3.04e5, "call": "inactive"}
{"predicted target": "Sec5", "DRSC id": "DRSC00714", "raw ATP luminescence, replicate 1": 1.07e5, "raw ATP luminescence, replicate 2": 69840, "call": "inactive"}
{"predicted target": "Naa40", "DRSC id": "DRSC16265", "raw ATP luminescence, replicate 1": 55960, "raw ATP luminescence, replicate 2": 39320, "call": "inactive"}
{"predicted target": "CG4553", "DRSC id": "DRSC15595", "raw ATP luminescence, replicate 1": 40370, "raw ATP luminescence, replicate 2": 44490, "call": "inactive"}
{"predicted target": "CG5386", "DRSC id": "DRSC15788", "raw ATP luminescence, replicate 1": 37180, "raw ATP luminescence, replicate 2": 36620, "call": "inactive"}
{"predicted target": "BoYb", "DRSC id": "DRSC11637", "raw ATP luminescence, replicate 1": 22887, "raw ATP luminescence, replicate 2": 19353, "call": "inactive"}
{"predicted target": "CG14540", "DRSC id": "DRSC14884", "raw ATP luminescence, replicate 1": 60880, "raw ATP luminescence, replicate 2": 77530, "call": "inactive"}
{"predicted target": "KaiR1D", "DRSC id": "DRSC15516", "raw ATP luminescence, replicate 1": 63310, "raw ATP luminescence, replicate 2": 71600, "call": "inactive"}
{"predicted target": "Drgx", "DRSC id": "DRSC00278", "raw ATP luminescence, replicate 1": 23620, "raw ATP luminescence, replicate 2": 30693, "call": "inactive"}
{"predicted target": "Drgx", "DRSC id": "DRSC00537", "raw ATP luminescence, replicate 1": 21453, "raw ATP luminescence, replicate 2": 26240, "call": "inactive"}
{"predicted target": "CG43861", "DRSC id": "DRSC02308", "raw ATP luminescence, replicate 1": 60940, "raw ATP luminescence, replicate 2": 63003, "call": "inactive"}
{"predicted target": "CG13775", "DRSC id": "DRSC02279", "raw ATP luminescence, replicate 1": 29453, "raw ATP luminescence, replicate 2": 34740, "call": "inactive"}
{"predicted target": "scu", "DRSC id": "DRSC20369", "raw ATP luminescence, replicate 1": 3.45e5, "raw ATP luminescence, replicate 2": 3.52e5, "call": "inactive"}
